According to the supplement of paper PMC6078165:
Values are relative to the signal before dosing, not to a vehicle control; the signal also falls without drug.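 Fibroblast labels denote human fibroblasts, mainly primary ones from uterus (C12385, HUF), lung (H6013), bone (Hs27A), adrenal (HADF) and skin (WS1), plus mammary HMF and breast cancer-associated Hs343T. Cancer cells are basal-like or mesenchymal-like triple-negative breast cancer lines. A hit is a response shift exceeding 3x replicate standard deviation. The tissue of the other fibroblasts is not given here.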

System: HCC1143
Test: relative JC-1 red fluorescence (viability) vs pre-drug, coculture with fibroblast (fraction); higher = more viable cancer cells
Conditions: 0.1 µM
Method: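 JC-1 labelled TNBC cells cocultured 1:1 (1,500 cells each) with CellTrace Violet stained primary or stromal fibroblasts in 384-well plates in FluoroBrite medium, treated with one of 42 anticancer drugs at 0.1, 1, 10 or 100 uM. JC-1 red fluorescence (mitochondrial integrity in cancer cells only) was read by plate reader every 8 h for 72 h. Values are normalised to each well's pre-drug value. The stock of one drug was tenfold lower, so its dose labels may be too high.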

CC(=O)O[C@@]12CO[C@@H]1C[C@H](O)[C@@]1(C)C(=O)[C@H](O)C3=C(C)[C@@H](OC(=O)[C@H](O)[C@@H](NC(=O)OC(C)(C)C)c4ccccc4)C[C@@](O)([C@@H](OC(=O)c4ccccc4)[C@H]21)C3(C)C [Docetaxel]
relative JC-1 red fluorescence
Conditions	8 h	16 h	24 h	32 h	40 h	48 h	56 h	64 h	72 h
coculture fibroblast: C12385	0.822	0.686	0.57	0.478	0.379	0.335	0.298	0.285	0.293
coculture fibroblast: H6013	0.79	0.735	0.691	0.674	0.608	0.608	0.589	0.592	0.52
coculture fibroblast: H6019	0.792	0.682	0.597	0.513	0.465	0.447	0.413	0.388	0.363
coculture fibroblast: H6076	0.8023	0.807	0.737	0.695	0.616	0.596	0.57	0.554	0.564
coculture fibroblast: H6231	0.8206	0.769	0.661	0.613	0.529	0.491	0.449	0.4181	0.4148
coculture fibroblast: HADF	0.7618	0.691	0.655	0.626	0.54	0.531	0.502	0.496	0.428
coculture fibroblast: HCFa	0.78	0.697	0.641	0.588	0.502	0.471	0.418	0.385	0.323
coculture fibroblast: HCPF	0.827	0.801	0.72	0.641	0.595	0.546	0.495	0.457	0.446
coculture fibroblast: HHSteC	0.817	0.736	0.677	0.614	0.528	0.494	0.45	0.428	0.364
coculture fibroblast: HMF	0.80705	0.837	0.753	0.6579	0.576	0.521	0.455	0.416	0.4
coculture fibroblast: HPFa	0.897	0.766	0.7076	0.6	0.543	0.525	0.471	0.455	0.442
coculture fibroblast: HUF	0.873	0.7423	0.642	0.554	0.489	0.451	0.403	0.383	0.366
coculture fibroblast: Hs5	0.85501	0.835	0.783	0.757	0.66	0.625	0.598	0.565	0.576
coculture fibroblast: Hs27A	0.7	0.582	0.526	0.513	0.395	0.389	0.357	0.344	0.288
coculture fibroblast: Hs343T	0.799	0.797	0.749	0.705	0.616	0.569	0.505	0.476	0.465
coculture fibroblast: WS1	0.81	0.704	0.601	0.495	0.393	0.351	0.326	0.311	0.308
